Measurements reported in PubChem BioAssay AID504467 (National Center for Advancing Translational Sciences (NCATS), 2011).
About 7,700 (2.3%) of roughly 330,000 compounds were called active. The shares of active, inactive and inconclusive entries below differ from those in the screen. Calls come from the whole dose curve; as a rule, active = well fitted inhibition curve with a large enough effect; inconclusive = small, poorly fitted or top-dose-only effect, or effect the other way; inactive = flat fitted curve, though single readings scatter. Where the call is inconclusive, the potency comes from a doubtful curve fit.

test: qHTS screen for small molecules that inhibit ELG1-dependent DNA repair in human embryonic kidney (HEK293T) cells expressing luciferase-tagged ELG1; settings: HEK293T ELG1-luciferase reporter, luminescence, 16 h, DNA damage induced by 5-fluorouridine; activity change, negative = inhibition: at 46.1 µM (top of the series); note: nearly all actives have a fitted effect of over 55% in size
Summary of the method: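 Reporter activity after DNA damage by 5-fluorouridine is monitored. Compound-treated cells incubate 16 hr at 37 °C, then ONE-Glo is added for 30 min before luminescence reading.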
% is set by controls: 0 for no effect and ±100 for the full control effect; potency is the fitted concentration of half-maximal effect.

Structure (SMILES)	Potency	activity change, negative = inhibition
O=C(Nc1ccc2c(c1)CCC2)c1ccccc1	inconclusive: 1.84 µM [activator, full curve]	
CC(=O)c1c(C)[nH]c(C(=O)CSc2nnc(-c3ccco3)n2Cc2ccccc2)c1C	inconclusive: 17.8 µM [inhibitor, partial curve, poor fit]	
Cc1ccc(S(=O)(=O)NCC(=O)OCN2C(=O)c3ccccc3C2=O)cc1		inactive: -4.53%
COc1ccc(OC(C)C(=O)N(C)Cc2nc(-c3ccc(OC)cc3)no2)cc1 (stereo unspecified)	inconclusive: 11.6 µM [inhibitor, partial curve, poor fit]	
N#Cc1nc(-c2ccco2)oc1N1CCc2ccccc2C1	inconclusive: 29.1 µM [activator, partial curve, poor fit]	
Cn1c(-c2sccc2OCc2ccccc2)n[nH]c1=S		inactive: 10.6%
O=C(N/N=C/c1cc(Cl)cc(Cl)c1O)c1ccncc1	inconclusive: 3.26 µM [inhibitor, full curve, poor fit]	
O=C(NCc1ccco1)C1CCCN(c2nnc(-n3cccc3)s2)C1 (stereo unspecified)		inactive: 1.26%
COc1ccc(NC(=O)Nc2ccc3c(c2)C(=O)N([C@H](C)CO)C[C@H](C)[C@@H](CN(C)S(=O)(=O)c2ccc(OC)cc2)O3)cc1		inactive: 2.56%
COc1cccc(-c2nn(-c3ccccc3)cc2C(=O)OCC(=O)Nc2ncc(Cl)cc2Cl)c1	active: 20.6 µM	
CCOC(=O)N/N=C(\C)c1ccc(Br)cc1	inconclusive: 16.4 µM [activator, single point]	
Cc1ccccc1OCC(=O)N/N=C/c1ccc([N+](=O)[O-])o1	inconclusive: 10.3 µM [inhibitor, partial curve, poor fit]	
CN=c1scc(-c2cc(OC)ccc2OC)n1/N=C/c1c(C)[nH]c2ccccc12	inconclusive: 23.1 µM [inhibitor, partial curve, poor fit]	
CCCc1nc2ccccc2c(=O)n1/N=C/c1ccccc1O	inconclusive: 18.4 µM [inhibitor, single point]	
COCCCn1c(=O)c2sccc2n(Cc2cccc(C)c2)c1=O	inconclusive: 11.6 µM [inhibitor, partial curve, poor fit]	
CN(C)S(=O)(=O)c1ccc(NC(=O)CN2CCN(c3ccccn3)CC2)cc1		inactive: -5.24%
Cc1nc(Cl)sc1C(=O)NC(C)c1ccc(Cl)cc1 (stereo unspecified)		inactive: 0.468%
Cc1ccc2cc(/C=C/C(=O)c3ccco3)c(Cl)nc2c1	inconclusive: 20.6 µM [activator, single point]	
CCOC(=O)CN1N=C(/C=C/c2ccc(C)cc2)CCC1=O	inconclusive: 23.1 µM [activator, partial curve, poor fit]	
O=C(NCCCn1cccn1)c1cc(COc2ccc(F)cc2Cl)on1	inconclusive: 14.6 µM [activator, partial curve]	
CSc1cccc(NC(=O)COc2cccc3ccccc23)c1		inactive: -13.1%
CCOC(=O)c1c(/N=C/N(C)C)sc(/C=N/Nc2ccccc2)c1-c1ccccc1Cl	active: 20.6 µM	
Cc1cc(C(=O)CSc2nnc(Nc3ccccc3F)s2)c(C)n1CC1CCCO1 (stereo unspecified)	inconclusive: 20.6 µM [inhibitor, single point]	
O=c1cc(CNc2ccc(Br)cc2)nc2sccn12	inconclusive: 18.4 µM [activator, single point]	

Reprinted at random: 2 records from the list, in no set order.
Structure (SMILES)	Potency	activity change, negative = inhibition
COc1ccc(OC(C)C(=O)N(C)Cc2nc(-c3ccc(OC)cc3)no2)cc1 (stereo unspecified)	inconclusive: 11.6 µM [inhibitor, partial curve, poor fit]	
CSc1cccc(NC(=O)COc2cccc3ccccc23)c1		inactive: -13.1%

(listing goes on)

Structure (SMILES)	Potency	activity change, negative = inhibition
O=C(NC(=S)Nc1ccccc1)c1ccc(Br)o1	inconclusive: 18.3 µM [activator, partial curve]	
CCCC[n+]1ccn(C2=C([O-])c3ccccc3C(=O)/C2=N\S(=O)(=O)c2ccccc2)c1	inconclusive: 35.5 µM [inhibitor, single point]	
CCn1c(SCC(=O)Nc2nc(C)cs2)nnc1-c1ccncc1		inactive: -7.83%
Cc1cc(=O)oc2cc(OCC(=O)Nc3ccccc3C(=O)O)ccc12	inconclusive: 0.259 µM [inhibitor, partial curve, poor fit]	
CN(C)CCNc1nc2sc3c(c2c(=O)n1-c1ccccc1)CCCCC3		inactive: 13.1%
O=C(c1cnc2n(c1=O)CCS2)N1CCN(c2ccccc2Cl)CC1		inactive: 2.58%
CC(=O)Nc1ccccc1OCC(=O)NCCC1=CCCCC1	inconclusive: 25.9 µM [inhibitor, single point]	
COC(=O)c1cc2occc2n1Cc1c(F)cccc1Cl	inconclusive: 25.9 µM [activator, single point]	
COc1ccc(NC(=O)c2cccc3cccnc23)cc1S(N)(=O)=O		inactive: 0%
CNC(=S)Nc1cccc(C(=O)O)c1		inactive: -6.89%
O=C(CSc1nnnn1-c1ccccc1)NC(=O)NCc1ccco1		inactive: 4.19%
COCCSc1nnc(NC(=O)C(C)(C)C)s1	inconclusive: 10 µM [activator, partial curve, poor fit]	
O=c1c2c(nc3cc(-c4ccc(Cl)cc4)[nH]n13)CCS2	inconclusive: 7.31 µM [activator, partial curve]	
Cc1cc2[nH]c(=O)cc(-c3ccccc3)n2n1	inconclusive: 16.4 µM [activator, partial curve, poor fit]	
C[C@H](O)C(=O)C1=Nc2c(nc(N)[nH]c2=O)NC1	inconclusive: 6.31 µM [activator, partial curve, poor fit]	
CCOC(=O)N1CCC(NC(=O)c2cc3c(-c4ccccc4F)nn(C)c3s2)CC1	active: 13 µM	
Cn1cccc1/C=N/NC(=O)c1ccn[nH]1	inconclusive: 20.6 µM [activator, partial curve]	
O=C(Cn1cc(C(=O)C2CC2)c2ccccc21)NCc1ccccc1	inconclusive: 20.6 µM [activator, single point]	
Nc1ccc2nc3c(=O)n(C4CCCCC4)c(=O)[nH]c3nc2c1	inconclusive: 16.4 µM [activator, partial curve]	
COc1ccccc1NC(=O)Nc1nc(CC(=O)Nc2ccc(F)c(F)c2)cs1	active: 4.61 µM	
COc1cccc(NC(=O)CN2C(=O)NC(C)(CC(C)C)C2=O)c1 (stereo unspecified)		inactive: 17.2%
Cn1c(=O)c(C(N)=S)cn(-c2ccccc2)c1=O		inactive: 22.2%
O=C(CN(c1cccc([N+](=O)[O-])c1)S(=O)(=O)c1ccccc1)N(Cc1ccccc1)Cc1ccccc1	inconclusive: 23.1 µM [inhibitor, partial curve, poor fit]	
COc1ccc(C(=O)N2CC(c3ccccc3)CC2=O)cc1 (stereo unspecified)	inconclusive: 11.6 µM [activator, single point]	

One compound at a time (already shown).
O=C(CN(c1cccc([N+](=O)[O-])c1)S(=O)(=O)c1ccccc1)N(Cc1ccccc1)Cc1ccccc1 is listed as Potency: inconclusive: 23.1 µM [inhibitor, partial curve, poor fit]
CCCC[n+]1ccn(C2=C([O-])c3ccccc3C(=O)/C2=N\S(=O)(=O)c2ccccc2)c1 is listed as Potency: inconclusive: 35.5 µM [inhibitor, single point]

Later entries:

Structure (SMILES)	Potency	activity change, negative = inhibition
C/C(CC(=O)NC12CC3CC(CC(C3)C1)C2)=N\NC(=O)c1cnccn1		inactive: 23.6%
CCn1c(=NC(=O)c2ccc(S(=O)(=O)N(C)C)cc2)sc2cccc(OC)c21	inconclusive: 20.6 µM [inhibitor, single point]	
N/C(=N\OC(=O)c1ccc(Cl)c([N+](=O)[O-])c1)c1ccccn1	inconclusive: 23.1 µM [activator, partial curve]	
CCC(C)NC(=O)CCCc1ccccc1 (stereo unspecified)	inconclusive: 11.6 µM [activator, partial curve]	
CCN(CC)S(=O)(=O)c1cc(NS(=O)(=O)c2ccccc2)ccc1C		inactive: -16.4%
COc1ccc(NC(=O)c2nn(C)cc2[N+](=O)[O-])cc1	inconclusive: 6.51 µM [activator, partial curve, poor fit]	
O=C(Nc1ccc(F)cc1)NC1CCN(Cc2nnnn2Cc2ccco2)CC1		inactive: -0.954%
Cc1noc(C)c1S(=O)(=O)N(C)C[C@H]1Oc2ccc(NS(=O)(=O)c3ccccc3)cc2C(=O)N([C@H](C)CO)C[C@@H]1C	inconclusive: 2.91 µM [inhibitor, partial curve, poor fit]	
Cc1cc2nc(C3CCN(C(=S)NCC(C)C)CC3)[nH]c2cc1C		inactive: -9.67%
CCc1nnc(NC(=O)CCC(=O)NCc2ccc(C)cc2)s1	inconclusive: 9.2 µM [activator, partial curve, poor fit]	
O=C1C(=C2CCCCC2)SC(=S)N1Cc1ccco1		inactive: -13.9%
Cc1cc(C)c(CN2CCC(n3nccc3NC(=O)C3CCOC3)CC2)cc1C (stereo unspecified)		inactive: 1.66%
CC1CC(C)CN(C(=O)Cn2c(-c3nonc3N)nc3ccccc32)C1 (stereo unspecified)	inconclusive: 10.3 µM [inhibitor, partial curve, poor fit]	
CCOc1cc(S(=O)(=O)N2CCC(Cc3ccccc3)CC2)c(OCC)cc1-n1cnnn1	inconclusive: 20.6 µM [inhibitor, partial curve, poor fit]	
O=C(Nc1ccccc1N1CCOCC1)C1CCN(S(=O)(=O)c2ccc(Cl)cc2)CC1		inactive: -18.5%
Cc1ccc(OCCC(=O)Nc2ccc(C)c(S(=O)(=O)N3CCOCC3)c2)cc1	inconclusive: 23.1 µM [inhibitor, partial curve]	
O=C(NCCc1ccc(Cl)cc1)c1ccc2ccccc2n1	inconclusive: 20.6 µM [activator, partial curve]	
C#CCOCCOCCOCCNc1nc(N2CCOCC2)nc(N2CCN(C(=O)[C@H](CCC(=O)O)n3cc([C@@H](N)CCCCN)nn3)CC2)n1	inconclusive: 29.1 µM [activator, single point]	
CC(C)c1nc(SCC(=O)Nc2ccc(C(=O)O)cc2)c2c3c(sc2n1)CCCC3		inactive: 16.2%
CCOc1ccc(C(C)=O)cc1COC(=O)CNC(=O)C12CC3CC(CC(C3)C1)C2	inconclusive: 25.9 µM [inhibitor, single point]	
CC(C)[C@H](NS(=O)(=O)c1ccccc1)C(=O)OCC(=O)Nc1cccc(S(N)(=O)=O)c1		inactive: 3.9%
COc1ccccc1C(=O)NCCC(=O)NCC1CCCCC1		inactive: 2.11%
O=C(NCC1CCCO1)C(c1ccncc1)N(Cc1ccc(F)cc1)C(=O)CN1C(=O)c2ccccc2S1(=O)=O (stereo unspecified)		inactive: -0.117%
